These results are taken from PMC6939340.

Sequences of proteins named here, by UniProt entry; tags and fusion partners are left off. A change or cut given only in a name is not applied to a line headed by its entry. Residues count along the entry.
UniProt P16070, residues 22-220: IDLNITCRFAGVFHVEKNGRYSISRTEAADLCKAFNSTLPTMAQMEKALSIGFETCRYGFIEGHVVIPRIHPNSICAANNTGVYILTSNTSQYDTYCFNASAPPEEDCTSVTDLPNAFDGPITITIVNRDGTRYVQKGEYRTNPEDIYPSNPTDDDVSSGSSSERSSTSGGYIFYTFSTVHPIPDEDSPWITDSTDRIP

No constants are given. Whether binding was seen depends on the method and setting. In cells and extracts the contact can be indirect.

For this assay, the target named is recombinant human CD44-Fc chimera protein (extracellular domain of CD44, amino acids 22-220) (human) (UniProt P16070). As to the kind of experiment: pull-down; concentrated conditioned medium mixed with 1 ug CD44-Fc, 37 C for 18 h; magnetic beads 2 h at 37 C; washed in 25 mM Tris-HCl pH 7.6, 200 mM NaCl, 0.1% NP-40, 6% glycerol, 1 mM EDTA, 0.5 mM DTT; western blot with anti-SRGN; only the target purified. (In western blotting, separated proteins are transferred to a membrane and probed.)

B1: SRGN(S/A) mutant, devoid of GAG modification (ligand, UniProt P10124 28-158)
chain: YPTRRARYQWVRCNPDSNSANCLEEKGPMFELLPGESNKIPRLRTDLFPKTRIQDLNRIFPLSEDYAGAGFGAGAGAGAGAGAGFLTEMEQDYQLVDESDAFHDNLRSLDRNLPSDSQDLGQHGLEEDFML
Take B1: the binding result was “no binding”.
